These are literature values, as cited in paper PMC6390583 (BMC rheumatology, 2018).

For data set [1], the system named is IL-6 induced pSTAT3, CD3+ whole blood. To be noted: read-out: IC50, IL-6 signaling in human whole blood; CD3+ T-cells; cited from earlier work.
The subject of data set [2] is IL-6 induced pSTAT3, CD14+ whole blood. To be noted: read-out: IC50, IL-6 signaling in human whole blood; monocytes; cited from earlier work.

By IC50 is commonly meant the concentration needed to halve the response being measured. Consider `C[C@@H]1CCN(C(=O)CC#N)C[C@@H]1N(C)c1ncnc2[nH]ccc12` [tofacitinib, reference compound], for which the IC50 is 367 nM in data set [1] and 406 nM in data set [2].
